# Data taken from article PMC11499588.
# Results are given in words; binding and its absence hold for the method and conditions named. In cells and extracts the contact can be indirect. Binding calls can cover weak binding; strength is not graded here. Sequences can lack the tags named with a protein.
# B1: DGAT2 121-250 aa-FLAG (domain or fragment, UniProt Q96PD7 121-250)
# chain: GRRSQWVRNWAVWRYFRDYFPIQLVKTHNLLTTRNYIFGYHPHGIMGLGAFCNFSTEATEVSKKFPGIRPYLATLAGNFRMPVLREYLMSGGICPVSRDTIDYLLSKNGSGNAIIIVVGGAAESLSSMPG
# B2: human diacylglycerol O-acyltransferase 2, FLAG-tagged (DGAT2-FLAG) (enzyme, UniProt Q96PD7 1-388)
# chain: MKTLIAAYSGVLRGERQAEADRSQRSHGGPALSREGSGRWGTGSSILSALQDLFSVTWLNRSKVEKQLQVISVLQWVLSFLVLGVACSAILMYIFCTDCWLIAVLYFTWLVFDWNTPKKGGRRSQWVRNWAVWRYFRDYFPIQLVKTHNLLTTRNYIFGYHPHGIMGLGAFCNFSTEATEVSKKFPGIRPYLATLAGNFRMPVLREYLMSGGICPVSRDTIDYLLSKNGSGNAIIIVVGGAAESLSSMPGKNAVTLRNRKGFVKLALRHGADLVPIYSFGENEVYKQVIFEEGSWGRWVQKKFQKYIGFAPCIFHGRGLFSSDTWGLVPYSKPITTVVGEPITIPKLEHPTQQDIDLYHTMYMEALVKLFDKHKTKFGLPETEVLEVN
# B3: DGAT2 1-120 aa-FLAG (DGAT2-N120-FLAG) (domain or fragment, UniProt Q96PD7 1-120)
# chain: MKTLIAAYSGVLRGERQAEADRSQRSHGGPALSREGSGRWGTGSSILSALQDLFSVTWLNRSKVEKQLQVISVLQWVLSFLVLGVACSAILMYIFCTDCWLIAVLYFTWLVFDWNTPKKG
# Tests used:
# [1] = target: T1, human diacylglycerol O-acyltransferase 2, FLAG-tagged (DGAT2-FLAG) (human) (UniProt Q96PD7); assay: co-IP; Huh7 cells cotransfected with DGAT2-FLAG and ZIKV NS2B3-HA plasmids; whole-cell lysates; IP with anti-FLAG antibody
# T1 sequence: B2 chain
# [2] = target: ZIKV NS2B3-HA (NS2B-NS3 protease, wild type) (Zika virus (H/PF/2013 strain)); assay: co-IP; Huh7 cells cotransfected with FLAG-tagged DGAT2 (whole or truncated) and HA-tagged NS2B3 (whole, truncated or S135A); whole-cell lysates (RIPA lysis buffer); IP with anti-HA agarose beads, 4 °C overnight; blots with anti-HA and anti-FLAG
# [3] = target: ZIKV NS2B3-HA (NS2B-NS3 protease, wild type) (Zika virus (H/PF/2013 strain)); assay: co-IP; 293T cells cotransfected with DGAT2-FLAG and ZIKV NS-HA plasmids; whole-cell extracts (RIPA lysis buffer); IP with anti-HA agarose beads, 4 °C overnight; blots with anti-FLAG and anti-HA
# [4] = target: ZIKV NS2B3-S135A-HA (protease-dead mutant) (Zika virus (H/PF/2013 strain)); assay: co-IP; Huh7 cells cotransfected with FLAG-tagged DGAT2 (whole or truncated) and HA-tagged NS2B3 (whole, truncated or S135A); whole-cell lysates (RIPA lysis buffer); IP with anti-HA agarose beads, 4 °C overnight; blots with anti-HA and anti-FLAG
molecule,measurement,setting,value
"ZIKV NS2B3-HA (NS2B-NS3 protease, wild type) (Zika virus (H/PF/2013 strain)) (enzyme)",binding,[1],binds
B1,binding,[2],binds
B2,binding,[3],binds
same,binding,[4],binds
B3,binding,[2],no binding
